# In PubChem BioAssay AID2685 (National Center for Advancing Translational Sciences (NCATS), 2010):
# Some of the results follow. Shown are side measurements of this screen, not its main read-out; they come without a call. The list favours compounds with an active or inconclusive main result. The note in brackets gives the kind of curve behind each potency; many fits are weak.
# Experiment: qHTS Assay for Lipid Storage Modulators in Drosophila S3 Cells;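 on cell number change: cells counted by Cell Tracker Red CMTPX staining in the red channel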
# Conditions: BODIPY lipid droplet fluorescence, 18-24 h; for cell number change: measured here: cell count max response, cells fed with added oleic acid
# In short: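 Laser-scanning cytometry quantifies lipid droplet accumulation (500–530 nm total intensity; droplet/cell object ratio) in oleic acid-fed (400 uM added) Drosophila S3 cells treated with a concentration series. 20 uM Triacsin C defined 100% inhibition.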
# [1] = measured here: cell number channel AC50, cells fed with added oleic acid
# [2] = measured here: lipid fluorescence (Fed channel) AC50, cells fed with added oleic acid
Structure (SMILES),AC50 [1],cell number change [%],AC50 [2]
COc1ccc(-c2cn[nH]c2N)c(OC)c1,"3.26 µM [rising, single point]",–,–
CCc1ccc(-c2cc(C(F)(F)F)n3nc(C(=O)Nc4cnn(Cc5ccc(C)cc5)c4)cc3n2)s1,–,-7.68,–
Cc1ccc(/C=C(\CCC(=O)O)c2nc3ccccc3s2)cc1[N+](=O)[O-],"1.03 µM [falling, full curve, poor fit]",-50,"4.11 µM [rising, partial curve, poor fit]"
Cc1nn2c(N3CCOCC3)cc(C(C)C)nc2c1-c1ccccc1,–,13.9,"18.4 µM [falling, partial curve]"
CC(=O)c1c(C)cc(C)c(CSc2nnc(-c3ccco3)o2)c1C,–,-5.95,–
CCn1nnc(NC(=O)c2cccnc2)n1,"0.731 µM [falling, full curve, poor fit]",-22.8,"2.91 µM [falling, full curve]"
CC(NC(=O)c1ccc(F)cc1)c1ccc(F)cc1 (stereo unspecified),–,-8.78,–
COc1ccccc1N(CN1C(=O)c2ccccc2C1=O)C(=O)c1cccnc1,–,-19.5,–
CCOC(=O)c1c[nH][nH]c1=O,–,-0.23,–
CCOC(=O)N1CCN(C(=O)c2ccc(N3CCCC3=O)cc2)CC1,–,-34.1,–
O=C(NCc1ccccc1)C1=C[C@H](C2CC2)C[C@H](OCCCCO)O1,–,29.5,"20.6 µM [rising, single point]"
COc1ccc(NC(=O)CCCn2c(=O)c3sccc3n(Cc3ccc(C)cc3)c2=O)cc1,–,-26.4,"29.1 µM [falling, single point]"
NNC(=O)c1nnn(-c2nonc2N)c1CN1CCc2ccccc2C1,–,88.8,–
Cc1cnc(NC(=O)c2ccc(-c3nc4ccccc4s3)o2)s1,–,-1.6,"4.61 µM [rising, full curve, poor fit]"
O=C(Cc1cc(=O)[nH][nH]1)N/N=C/c1cccc2ccccc12,–,20.4,"29.1 µM [rising, single point]"
CCc1nnc(NC(=O)c2ccc(OC)cc2OC)s1,–,-2.57,"6.51 µM [rising, single point]"
Cc1[nH]c2ccccc2c1C(=O)CN1CCCC1,–,-10.6,"32.6 µM [rising, single point]"
O=C(N/N=C1\CCCc2ccccc21)c1cccc([N+](=O)[O-])c1,"2.91 µM [rising, full curve]",49.2,–
CCn1c(SCc2nc(-c3ccc(Cl)cc3)no2)nnc1-c1ccco1,–,-9.66,"0.0082 µM [falling, full curve, poor fit]"
CC(=O)Oc1cc2c(C(C)=O)coc2c2ccccc12,–,-3.84,"6.51 µM [falling, single point]"
O=C(c1cc2ccccc2oc1=O)N(Cc1ccco1)CC1CCCO1 (stereo unspecified),–,23.7,"16.4 µM [rising, single point]"
COc1ccc(Cc2nnc(-c3ccc(F)cc3)o2)cc1OC,"0.411 µM [rising, partial curve]",–,"1.03 µM [rising, partial curve]"

# Some entries already given, showing only cell number change [%] and AC50 [1].
Structure (SMILES)	cell number change [%]	AC50 [1]
Cc1ccc(/C=C(\CCC(=O)O)c2nc3ccccc3s2)cc1[N+](=O)[O-]	-50	1.03 µM [falling, full curve, poor fit]
Cc1nn2c(N3CCOCC3)cc(C(C)C)nc2c1-c1ccccc1	13.9	–
CC(=O)c1c(C)cc(C)c(CSc2nnc(-c3ccco3)o2)c1C	-5.95	–

# Later entries.

Structure (SMILES),AC50 [1],cell number change [%],AC50 [2]
COc1ccc(C/C(C)=N\NC(=O)c2c[nH]c3ccccc23)cc1OC,"18.4 µM [rising, single point]",44.9,"20.6 µM [rising, single point]"
Fc1ccc(NC(=S)NCc2ccc3c(c2)OCO3)cc1,–,–,"2.91 µM [falling, single point]"
CCn1c(=O)cc(SCC(=O)NCc2ccc(C)o2)c2ccccc21,"0.58 µM [falling, single point]",–,"0.58 µM [falling, single point]"
Cc1ccc(C(c2nnnn2C2CCCC2)N2c3ccccc3CC2C)cc1 (stereo unspecified),–,-21.4,–
Cc1cc(C)cc(OCC(=O)N2N=C(C(F)(F)F)CC2(O)C(C)(C)C)c1 (stereo unspecified),"5.17 µM [falling, single point]",–,"7.31 µM [falling, partial curve, poor fit]"
COc1ccc(CCNC(=O)CSc2nn(-c3ccccc3)c(=S)s2)cc1,–,–,"2.59 µM [rising, partial curve]"
Cc1ccc(C2=NN=C(NC(=O)C(F)(F)F)SC2)cc1,–,9.7,"11.6 µM [rising, partial curve, poor fit]"
COc1ccc(CN2C(=NC(=O)C3CCCO3)SC3CS(=O)(=O)CC32)cc1 (stereo unspecified),–,-4.96,–
CC(=O)N1CCN(S(=O)(=O)c2cccc(C(=O)Nc3nccs3)c2)CC1,–,-7.57,"0.651 µM [falling, full curve]"
CCOC(=O)CCc1c(C)c2ccc(OC3CCCCC3=O)cc2oc1=O (stereo unspecified),"14.6 µM [falling, partial curve]",-39.8,"18.4 µM [falling, partial curve]"
CN(C)c1cc[n+](CC(=O)c2cccs2)cc1,–,-22.8,"0.731 µM [falling, partial curve, poor fit]"
COc1ccccc1OCCNC(=O)c1ccc2c(c1)OCCO2,"1.16 µM [falling, full curve]",–,–
Cc1ccccc1NC(=O)C1C2C=CC(C3CC23)C1C(=O)O (stereo unspecified),–,29.8,"29.1 µM [rising, single point]"
COc1ccc(CCNC(=O)C2CCC(CNc3c(N4CCCC4)c(=O)c3=O)CC2)cc1OC (stereo unspecified),–,-2.02,–
O=C(COC(=O)CCC1CCCCC1)Nc1ccc(OC(F)F)cc1,"20.6 µM [falling, single point]",-73.7,–
Cc1ccc(CSCC(=O)Nc2c(C)n(C)n(-c3ccccc3)c2=O)cc1,"0.731 µM [rising, full curve, poor fit]",–,–
Cc1cccc(NC(=S)NC(=O)c2ccc(Br)o2)c1C,"18.4 µM [rising, partial curve]",106,"20.6 µM [rising, partial curve]"
COc1cc(/C=C2/C(=O)ON=C2c2ccccc2)ccc1O,–,1.93,–
CCOc1ccc(C(C)NC(=O)CN2C(=O)NC3(CCCCC3)C2=O)cc1OCC (stereo unspecified),–,7.87,"4.11 µM [falling, single point]"
CC(=O)Nc1ccc(S(=O)(=O)Nc2nc(C)cc(-n3nc(C)cc3C)n2)cc1,–,16.3,–
Cc1cc(C)nc(NC(=O)CSc2ncccn2)n1,–,10.6,"1.64 µM [falling, partial curve, poor fit]"
Cn1c(SCC(=O)c2c(N)n(C)c(=O)n(C)c2=O)nnc1-c1ccccc1,"32.6 µM [rising, single point]",38,"29.1 µM [rising, single point]"

Structure (SMILES),AC50 [1],cell number change [%],AC50 [2]
O=[N+]([O-])c1ccc(N2CCN(S(=O)(=O)c3ccccc3)CC2)c2cccnc12,–,5.89,"2.59 µM [rising, single point]"
Cc1cccc(N2CCN(C(=O)C3CCN(S(=O)(=O)c4cccnc4)CC3)CC2)c1C,–,6.08,"1.46 µM [rising, full curve]"
Cc1ccc(OCc2nn3c(-c4n[nH]c5c4CCC5)nnc3s2)cc1,–,18.1,"32.6 µM [rising, partial curve]"
CC(=O)N1CCN(S(=O)(=O)c2cccc(C(=O)NC3CCCC3)c2)CC1,–,3.19,"29.1 µM [rising, single point]"
Cc1ccc(C(=O)Nc2ccccc2OC(F)F)cc1,"1.3 µM [falling, full curve, poor fit]",–,"0.13 µM [falling, full curve, poor fit]"
COc1ccccc1OCc1nc(C#N)c(N2CCC(C(N)=O)CC2)o1,–,21.8,–
N#Cc1c2c(c(NCc3ccco3)n3c1nc1ccccc13)CCC2,–,-0.349,"0.116 µM [rising, partial curve, poor fit]"
CCc1ccc(NC(=O)N(CCCN2CCOCC2)Cc2cccs2)cc1,–,-8.75,"0.366 µM [rising, full curve, poor fit]"
Cn1cc(Br)c(C(=O)NNC(=O)Cc2ccc(Cl)cc2)n1,"0.058 µM [rising, full curve, poor fit]",0.952,–
Nc1c(C(=O)O)cnc2nc(N3CCOCC3)nn12,"0.184 µM [falling, single point]",-1.9,–
COC(=O)CCC(=O)Nc1ccc(N=Nc2ccccc2)cc1,–,-24.5,–
O=C(Cn1nnc(-c2ccccc2)n1)OC1CCOC1=O (stereo unspecified),–,2.07,–
COc1ccccc1-n1cnc2cc(NC(=O)c3ccco3)ccc21,"1.46 µM [rising, partial curve, poor fit]",53.5,"0.58 µM [rising, single point]"
O=C(O)Cc1ccc(NS(=O)(=O)c2ccc3ccccc3c2)cc1,–,28,"25.9 µM [rising, partial curve, poor fit]"
CCOC(=O)/C=C1\SCC(=O)N1CC(=O)NC(C)C,–,-9.86,–
O=C(CC1OC(=O)c2ccccc21)NCC1COc2ccccc2O1 (stereo unspecified),–,7.09,"29.1 µM [rising, single point]"
COCCCNc1ncnc2nc[nH]c12,–,-94.7,"29.1 µM [falling, single point]"
CCOC(=O)NC(=O)COC(=O)CCCSc1nc2ccccc2s1,"6.51 µM [falling, single point]",–,"6.51 µM [falling, single point]"
CCOc1ccc(C2NC(=O)c3ccccc3O2)cc1 (stereo unspecified),–,-3.99,–
CCCCCCc1c(O)c2ccccc2[nH]c1=O,–,-10.5,"1.16 µM [falling, full curve]"
Cc1c([N+](=O)[O-])c(C(=O)NC2CCCC2)nn1C,–,-7.46,–
CC(=O)NNC(=S)Nc1cc(S(=O)(=O)N(C)C)ccc1C,"0.0058 µM [rising, full curve, poor fit]",15.7,–
